These are yes or no findings as the source states them, for the method shown. Some results given as binding are weak or reduced against the parent protein; the word gives no strength.
T1: Smc6 (E1048Q) (S. cerevisiae) (UniProt Q12749)
T1 sequence: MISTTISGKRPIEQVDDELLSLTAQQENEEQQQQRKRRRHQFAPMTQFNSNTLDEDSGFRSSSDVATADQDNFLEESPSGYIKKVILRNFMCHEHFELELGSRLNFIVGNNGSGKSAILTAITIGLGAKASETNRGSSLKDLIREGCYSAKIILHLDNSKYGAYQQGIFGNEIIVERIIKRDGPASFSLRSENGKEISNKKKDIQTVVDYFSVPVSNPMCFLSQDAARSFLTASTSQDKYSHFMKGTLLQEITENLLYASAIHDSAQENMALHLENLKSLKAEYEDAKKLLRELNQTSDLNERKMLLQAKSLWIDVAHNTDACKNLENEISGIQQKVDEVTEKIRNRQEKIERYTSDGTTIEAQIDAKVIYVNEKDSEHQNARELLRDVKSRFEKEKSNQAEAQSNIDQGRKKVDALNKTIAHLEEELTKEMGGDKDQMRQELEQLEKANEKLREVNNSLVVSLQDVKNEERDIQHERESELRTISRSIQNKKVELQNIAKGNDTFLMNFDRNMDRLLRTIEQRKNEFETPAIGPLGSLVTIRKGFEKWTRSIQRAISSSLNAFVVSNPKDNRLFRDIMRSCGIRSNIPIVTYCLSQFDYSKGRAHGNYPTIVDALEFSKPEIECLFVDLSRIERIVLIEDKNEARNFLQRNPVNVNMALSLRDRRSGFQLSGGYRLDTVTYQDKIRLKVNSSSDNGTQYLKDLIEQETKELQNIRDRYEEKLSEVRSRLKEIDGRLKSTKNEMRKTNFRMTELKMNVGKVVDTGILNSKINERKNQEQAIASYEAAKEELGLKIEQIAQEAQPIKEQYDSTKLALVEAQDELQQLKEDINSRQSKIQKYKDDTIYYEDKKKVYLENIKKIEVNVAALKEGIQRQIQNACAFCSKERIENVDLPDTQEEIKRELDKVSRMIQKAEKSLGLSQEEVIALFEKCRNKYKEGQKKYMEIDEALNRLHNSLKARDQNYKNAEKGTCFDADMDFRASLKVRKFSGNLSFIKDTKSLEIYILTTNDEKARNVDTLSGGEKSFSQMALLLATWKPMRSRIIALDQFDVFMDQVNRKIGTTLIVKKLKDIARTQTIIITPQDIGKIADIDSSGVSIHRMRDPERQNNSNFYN

T2: Nse3 (S. cerevisiae) (UniProt Q05541)
T2 sequence: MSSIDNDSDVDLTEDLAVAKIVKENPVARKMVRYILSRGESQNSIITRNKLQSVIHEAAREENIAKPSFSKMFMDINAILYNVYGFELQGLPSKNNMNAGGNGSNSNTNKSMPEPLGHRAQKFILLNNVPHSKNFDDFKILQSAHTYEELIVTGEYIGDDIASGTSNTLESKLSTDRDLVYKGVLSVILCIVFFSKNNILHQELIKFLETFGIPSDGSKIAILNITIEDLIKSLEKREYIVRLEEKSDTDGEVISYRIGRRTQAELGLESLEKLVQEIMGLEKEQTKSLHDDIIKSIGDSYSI

T3: Nse1 (S. cerevisiae) (UniProt Q07913)
T3 sequence: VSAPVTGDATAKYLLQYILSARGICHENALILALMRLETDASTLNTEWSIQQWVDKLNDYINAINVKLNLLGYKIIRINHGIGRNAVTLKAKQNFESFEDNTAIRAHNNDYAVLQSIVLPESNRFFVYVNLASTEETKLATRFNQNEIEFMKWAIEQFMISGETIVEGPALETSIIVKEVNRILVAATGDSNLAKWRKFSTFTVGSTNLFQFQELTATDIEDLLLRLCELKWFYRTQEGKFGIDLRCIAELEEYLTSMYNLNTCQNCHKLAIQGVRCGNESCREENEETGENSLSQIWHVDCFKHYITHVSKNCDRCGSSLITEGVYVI

T4: Smc5 (E1015Q) (S. cerevisiae) (UniProt Q08204)
T4 sequence: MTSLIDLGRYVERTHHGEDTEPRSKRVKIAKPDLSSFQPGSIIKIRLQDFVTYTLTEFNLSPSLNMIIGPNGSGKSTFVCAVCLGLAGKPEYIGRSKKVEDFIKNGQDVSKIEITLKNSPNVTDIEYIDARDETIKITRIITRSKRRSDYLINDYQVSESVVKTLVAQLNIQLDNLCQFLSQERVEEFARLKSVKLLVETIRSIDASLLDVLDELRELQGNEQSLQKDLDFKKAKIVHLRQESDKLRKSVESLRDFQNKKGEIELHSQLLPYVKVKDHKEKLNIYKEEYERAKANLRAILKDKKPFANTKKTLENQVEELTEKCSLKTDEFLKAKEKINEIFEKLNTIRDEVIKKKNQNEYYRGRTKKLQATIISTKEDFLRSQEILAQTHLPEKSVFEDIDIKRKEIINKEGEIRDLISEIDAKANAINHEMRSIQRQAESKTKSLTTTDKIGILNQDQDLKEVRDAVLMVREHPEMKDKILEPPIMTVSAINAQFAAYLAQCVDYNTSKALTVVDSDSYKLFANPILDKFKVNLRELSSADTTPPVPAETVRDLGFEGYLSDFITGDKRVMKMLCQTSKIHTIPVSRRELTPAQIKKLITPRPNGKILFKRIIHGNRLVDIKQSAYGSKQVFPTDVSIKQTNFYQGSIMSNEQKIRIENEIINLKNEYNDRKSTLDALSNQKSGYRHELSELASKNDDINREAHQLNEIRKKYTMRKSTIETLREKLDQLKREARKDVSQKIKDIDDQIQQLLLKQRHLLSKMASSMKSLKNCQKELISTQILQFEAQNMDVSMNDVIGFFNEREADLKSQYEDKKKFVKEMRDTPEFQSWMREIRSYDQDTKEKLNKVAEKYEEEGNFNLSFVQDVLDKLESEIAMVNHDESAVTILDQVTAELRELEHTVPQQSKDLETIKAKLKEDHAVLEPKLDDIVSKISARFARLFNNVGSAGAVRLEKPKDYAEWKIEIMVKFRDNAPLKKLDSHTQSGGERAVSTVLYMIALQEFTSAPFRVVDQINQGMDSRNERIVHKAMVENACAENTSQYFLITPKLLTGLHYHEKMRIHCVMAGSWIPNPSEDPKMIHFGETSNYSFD


Legend:
Assay in all cases: cryo-EM structure; purified hexameric Smc5/6-EQ complex (0.3 mg/mL) incubated with 1 mM ATP, 2 mM MgCl2 and 1.5 uM 72-bp dsDNA at 4 °C for 2 h; map at 3.8 Å; both purified
[1] = molecular target: T1, Smc6 (E1048Q) (S. cerevisiae)
Nse3 (S. cerevisiae) = molecular target: T2, Nse3 (S. cerevisiae)
Nse1 (S. cerevisiae) = molecular target: T3, Nse1 (S. cerevisiae)
[2] = molecular target: T4, Smc5 (E1015Q) (S. cerevisiae)

binding [1]	binding (Nse3 (S. cerevisiae))	binding (Nse1 (S. cerevisiae))	binding [2]	Binder
binds				Smc5 (E1015Q) (protein, UniProt Q08204 1-1093) MTSLIDLGRYVERTHHGEDTEPRSKRVKIAKPDLSSFQPGSIIKIRLQDFVTYTLTEFNLSPSLNMIIGPNGSGKSTFVCAVCLGLAGKPEYIGRSKKVEDFIKNGQDVSKIEITLKNSPNVTDIEYIDARDETIKITRIITRSKRRSDYLINDYQVSESVVKTLVAQLNIQLDNLCQFLSQERVEEFARLKSVKLLVETIRSIDASLLDVLDELRELQGNEQSLQKDLDFKKAKIVHLRQESDKLRKSVESLRDFQNKKGEIELHSQLLPYVKVKDHKEKLNIYKEEYERAKANLRAILKDKKPFANTKKTLENQVEELTEKCSLKTDEFLKAKEKINEIFEKLNTIRDEVIKKKNQNEYYRGRTKKLQATIISTKEDFLRSQEILAQTHLPEKSVFEDIDIKRKEIINKEGEIRDLISEIDAKANAINHEMRSIQRQAESKTKSLTTTDKIGILNQDQDLKEVRDAVLMVREHPEMKDKILEPPIMTVSAINAQFAAYLAQCVDYNTSKALTVVDSDSYKLFANPILDKFKVNLRELSSADTTPPVPAETVRDLGFEGYLSDFITGDKRVMKMLCQTSKIHTIPVSRRELTPAQIKKLITPRPNGKILFKRIIHGNRLVDIKQSAYGSKQVFPTDVSIKQTNFYQGSIMSNEQKIRIENEIINLKNEYNDRKSTLDALSNQKSGYRHELSELASKNDDINREAHQLNEIRKKYTMRKSTIETLREKLDQLKREARKDVSQKIKDIDDQIQQLLLKQRHLLSKMASSMKSLKNCQKELISTQILQFEAQNMDVSMNDVIGFFNEREADLKSQYEDKKKFVKEMRDTPEFQSWMREIRSYDQDTKEKLNKVAEKYEEEGNFNLSFVQDVLDKLESEIAMVNHDESAVTILDQVTAELRELEHTVPQQSKDLETIKAKLKEDHAVLEPKLDDIVSKISARFARLFNNVGSAGAVRLEKPKDYAEWKIEIMVKFRDNAPLKKLDSHTQSGGERAVSTVLYMIALQEFTSAPFRVVDQINQGMDSRNERIVHKAMVENACAENTSQYFLITPKLLTGLHYHEKMRIHCVMAGSWIPNPSEDPKMIHFGETSNYSFD
	binds			Nse1 (protein, UniProt Q07913 8-336) VSAPVTGDATAKYLLQYILSARGICHENALILALMRLETDASTLNTEWSIQQWVDKLNDYINAINVKLNLLGYKIIRINHGIGRNAVTLKAKQNFESFEDNTAIRAHNNDYAVLQSIVLPESNRFFVYVNLASTEETKLATRFNQNEIEFMKWAIEQFMISGETIVEGPALETSIIVKEVNRILVAATGDSNLAKWRKFSTFTVGSTNLFQFQELTATDIEDLLLRLCELKWFYRTQEGKFGIDLRCIAELEEYLTSMYNLNTCQNCHKLAIQGVRCGNESCREENEETGENSLSQIWHVDCFKHYITHVSKNCDRCGSSLITEGVYVI
binds	binds	binds	binds	Nse4 (protein, UniProt P43124 1-402) MSSTVISRKRRNSTVTEPDSSGETRKQKKSRSDEKSSSSKDGDPQLEFKVLQGYRDLESEMHKGRAQVTRTGDIGVAMDNLNAVDSLFNKVIGIKNNGLFAHDARAMVSISELAQISVRNLKFDDSRSMVNLENIVNSLKRYMLKEHFKLNNIAENRNDLTLAADEQSAADQQEESDGDIDRTPDDNHTDKATSSFKATSMRHSYLQQFSHYNEFSQFNWFRIGALYNTISKNAPITDHLMGPLSIEKKPRVLTQRRRNNDQVGEKITAEKITQHSLNSTQQETTPEQVKKCFKKLSKKLGPEGSINLFKFIIDPNSFSRSIENLFYTSFLIKEGKLLMEHDEEGLPTIKIKQSISHTDSRSKEIERQRRRAAHQNHIIFQMDMPTWRKLIKKYNITSPFLD
